Like-named read-outs stand apart in the source and are kept apart here.
System: Plasmodium falciparum chloroquine-resistant clone (W2)
Assay type: cell-based

Row | SMILES | Selectivity index (SI) MDL50 / IC50 | Selectivity index (SI) MDL50 / IC50 (listed as zinc oxide)
1 | COc1ccc([C@@H]2CC(=O)c3c(O)cc(O[C@@H]4O[C@H](CO[C@@H]5O[C@@H](C)[C@H](O)[C@@H](O)[C@H]5O)[C@@H](O)[C@H](O)[C@H]4O)cc3O2)cc1O [Hesperidin] | Inactive | –
2 | CC(=O)N[C@@H](CS)C(=O)O [N-Acetylcysteine] | Inactive | –
3 | [O]=[Zn] [Zinc oxide] | ≥ 370 | 370

Reference: publication PMC6282106, “Commercial drugs containing flavonoids are active in mice with malaria and in vitro against chloroquine-resistant Plasmodium falciparum” (Memórias do Instituto Oswaldo Cruz, 2018)
